Source: article PMC7819943, “Rice protein-binding microarrays: a tool to detect cis-acting elements near promoter regions in rice”
Some of the results follow.

By UniProt entry, the sequences of proteins in these tests, tags left out.
UniProt Q0JBA9, entry or part of it: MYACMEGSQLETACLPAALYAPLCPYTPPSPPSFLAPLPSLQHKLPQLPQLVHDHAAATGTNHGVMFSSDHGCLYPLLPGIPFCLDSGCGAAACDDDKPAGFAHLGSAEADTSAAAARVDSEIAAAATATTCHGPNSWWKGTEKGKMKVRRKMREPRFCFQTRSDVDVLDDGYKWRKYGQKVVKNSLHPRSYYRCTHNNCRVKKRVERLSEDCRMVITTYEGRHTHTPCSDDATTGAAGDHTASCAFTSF

Biological target: OsWRKY34 (Oryza sativa, UniProt Q0JBA9 1-250)
Assay: protein-binding microarray (RPBM); PBS, 2% BSA, 51.3 ng/ul salmon testes DNA, 50 uM zinc acetate, 200 nM TF, 25 C, 1 h; high values mean tight binding
Details: protein: recombinant; tags: N-terminal polyhistidine and DsRed monomer fusion (pET32a); label: CyDye5-dUTP incorporated in the synthesized complementary strand; 3' TTTTT single-stranded linker to array surface; dsDNA, one strand shown
In short: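 Transcription factors were each fused at the N-terminus to a polyhistidine tag plus DsRed and expressed in E. coli BL21-CodonPlus before Ni–NTA purification. Binding to a double-stranded custom Agilent array was carried out with 200 nM protein at 25 °C for 1 h in PBS, 2% BSA, salmon testes DNA and 50 µM zinc acetate. The binding signal is per-feature fluorescence intensity, in arbitrary units, on an Axon 4000B scanner.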

Compared with “TGCGTGTCCCATCTCACCCTCACACCGTCACACAACAAGCCGGAGTCACCTAGTGCAG”, “CAAGGATGCCCACACTTGTTATAACTTTCTCAGAGCGATCCGGAGTCACCTAGTGCAG” is lower in binding signal: 9020 fluorescence intensity (a.u.) for the first, 8030 fluorescence intensity (a.u.) for the second.

First: CGTGTATAGTTTGGCAATGCAAATATTTGTGGTCATTTTCCGGAGTCACCTAGTGCAG
Second: CGTTTGACCGTTCGTCTTATTTGAAAATTTTTTATGCTTACGGAGTCACCTAGTGCAG
The binding signal of the first is higher: 11900 fluorescence intensity (a.u.) for the first, 10100 fluorescence intensity (a.u.) for the second.

Compared with “GCTCCGTGCCGCCGGCTTCGCGCGCCACTGCCTCGCCGGCCGGAGTCACCTAGTGCAG”, “GTAGGGTGTTAGACTTGTCTTGGTGCTTGCCAGTACGTTACGGAGTCACCTAGTGCAG” is higher in binding signal: 8280 fluorescence intensity (a.u.) for the first, 11800 fluorescence intensity (a.u.) for the second.

First: GAATTATAGCACACTACTTTATTAACTATGTTGTTACACACGGAGTCACCTAGTGCAG
Second: GCACATTTTGCATATCTTTTTTTTTCTCTCTGTGGAGAACCGGAGTCACCTAGTGCAG
The binding signal of the first is higher: 9220 fluorescence intensity (a.u.) for the first, 8880 fluorescence intensity (a.u.) for the second.

Going from “TTTCTCTCCATATGTCCTTTATAGATTGATTTGATAATTTCGGAGTCACCTAGTGCAG” to “GCCCATGCGCGACCTCGCCACCATATATAAACCGCGCCAACGGAGTCACCTAGTGCAG”, the binding signal rises from 8080 fluorescence intensity (a.u.) to 10200 fluorescence intensity (a.u.).

Compared with “TAATCCTAATCTCATGCTTCTGCTTTCTCTATGTTTCTCTCGGAGTCACCTAGTGCAG”, “TTCCTATTTGTATAGTCGCACTCCGTCGACACCATCTCCTCGGAGTCACCTAGTGCAG” is lower in binding signal: 9360 fluorescence intensity (a.u.) for the first, 8330 fluorescence intensity (a.u.) for the second.

Compared with “AATGTATTCCTTTCCTATTTACAATAAAATTTATTGATGCCGGAGTCACCTAGTGCAG”, “GCTCTGTTCTTCTCTGTTCTTCTCTATTCCTTCCAAATTCCGGAGTCACCTAGTGCAG” is higher in binding signal: 9250 fluorescence intensity (a.u.) for the first, 15400 fluorescence intensity (a.u.) for the second.

Compared with “AGTCTGCTGGGTTGGAGGGCTTCGTCTCGGAATTGTTCCCCGGAGTCACCTAGTGCAG”, “CGGTAATATAAATACTGCGGTAACCTCCTTAAATTCAAATCGGAGTCACCTAGTGCAG” is lower in binding signal: 10200 fluorescence intensity (a.u.) for the first, 8600 fluorescence intensity (a.u.) for the second.

Going from “GCTGGTGGGCGGTGGATTCGGCGTAGGGAGGCGAGGCAGTCGGAGTCACCTAGTGCAG” to “TTTACCTTTTCCCAGTTTTCATTTTGGCGCGAGCCTTTCCCGGAGTCACCTAGTGCAG”, the binding signal rises from 8540 fluorescence intensity (a.u.) to 11200 fluorescence intensity (a.u.).

Compared with “ATCATGTTTCGTCCGTTTTATAATATAAGTTGTTTTGACTCGGAGTCACCTAGTGCAG”, “CGCCGGATCTGCAACCACTGCCCACCACCTCCTAACCTCACGGAGTCACCTAGTGCAG” is lower in binding signal: 11400 fluorescence intensity (a.u.) for the first, 9730 fluorescence intensity (a.u.) for the second.

Compared with “CATGTGTCCCACTTTTTTTTTGTATGAATGATATGTCGGTCGGAGTCACCTAGTGCAG”, “CAGTTTTGATCTAGTTCTTTCCATGTGCTTTGTCCTCACACGGAGTCACCTAGTGCAG” is higher in binding signal: 8030 fluorescence intensity (a.u.) for the first, 11200 fluorescence intensity (a.u.) for the second.

First: TCAGCCACCATGTTAACACCTCTCTGATTGCCACTATGCTCGGAGTCACCTAGTGCAG
Second: CAGCACCAACGTTCTCTTCGGCCGATTCGGCGATTGCATCCGGAGTCACCTAGTGCAG
The binding signal of the first is lower: 8410 fluorescence intensity (a.u.) for the first, 8930 fluorescence intensity (a.u.) for the second.

Compared with “CCGGCCATAAACGCGAGCCCACTAAAAGACTCGGCCCATTCGGAGTCACCTAGTGCAG”, “TGGCTACCATCACTCATTGATCTCCTGTGCACATCGAAACCGGAGTCACCTAGTGCAG” is higher in binding signal: 8210 fluorescence intensity (a.u.) for the first, 9260 fluorescence intensity (a.u.) for the second.

Compared with “CACAACACTAGCTCAACCTCCACCACCAGTTCAGATATGCCGGAGTCACCTAGTGCAG”, “CCACCGCGTCCACATCTGCCTCGCCCTCGCGCCGCCGCTTCGGAGTCACCTAGTGCAG” is higher in binding signal: 9550 fluorescence intensity (a.u.) for the first, 10400 fluorescence intensity (a.u.) for the second.

Going from “ACCGTCTAGACTCAAGCTTTACTGACGATATTAACTTGTTCGGAGTCACCTAGTGCAG” to “ATAGTTTCATTTTGATTCTTCCGCTCTCTGCTAGCTTCCACGGAGTCACCTAGTGCAG”, the binding signal rises from 8430 fluorescence intensity (a.u.) to 11000 fluorescence intensity (a.u.).

First: AACCACTGATTCGTTATTCAATACAAGCAACTTTATTTCTCGGAGTCACCTAGTGCAG
Second: ATTTTGACTTTTTGGTTGCGCTATTTGATTACTCGTCTTACGGAGTCACCTAGTGCAG
The binding signal of the first is lower: 11600 fluorescence intensity (a.u.) for the first, 19400 fluorescence intensity (a.u.) for the second.

Going from “ACGCCTCTTTTCTTCTGTCCTGTCTTCATCTCCTACCTAACGGAGTCACCTAGTGCAG” to “GGTGCCTGATATTTCTCCATTACCTTCCATGATCTCCACCCGGAGTCACCTAGTGCAG”, the binding signal rises from 10600 fluorescence intensity (a.u.) to 10700 fluorescence intensity (a.u.).

First: AATAGCATTCATCCATCAACTGAAGAACAAAGAGGCCATTCGGAGTCACCTAGTGCAG
Second: AATATTGCTCTTCCATCTCTTGTCGGCATCATCTGTATAACGGAGTCACCTAGTGCAG
The binding signal of the first is lower: 10100 fluorescence intensity (a.u.) for the first, 10400 fluorescence intensity (a.u.) for the second.

Going from “ATAGTCTCATTCATCCGGTGTTCCATGTGTCCCAGTTAAACGGAGTCACCTAGTGCAG” to “ACTCGAATTCACCTTCACCTTCAGCGCGAGCCGCGAGCGACGGAGTCACCTAGTGCAG”, the binding signal rises from 9430 fluorescence intensity (a.u.) to 10100 fluorescence intensity (a.u.).

Going from “CATTATATATCCATGCATCACACACACACACACACATGCTCGGAGTCACCTAGTGCAG” to “AGTAATATAGTTCATGTTTTAGTTTTCGTTGTAGTCTATACGGAGTCACCTAGTGCAG”, the binding signal falls from 8450 fluorescence intensity (a.u.) to 8160 fluorescence intensity (a.u.).

First: CTTTTTTGCTTACACCGTTGTAAGTCCAGCAGCAAGGCCACGGAGTCACCTAGTGCAG
Second: TCTTCCAACGGTTGCTCTCCTCTCTTCCGAGTTCCGACTTCGGAGTCACCTAGTGCAG
The binding signal of the first is lower: 8550 fluorescence intensity (a.u.) for the first, 8860 fluorescence intensity (a.u.) for the second.
